The results in this text go back to paper PMC6054203.

These are yes or no findings as the source states them, for the method shown. For part of these data: Binding can be weak; no strength is given. Where a sequence is shown, tags or fusion partners need not be part of it. For part of these data: In cells and extracts the contact can be indirect.

Assay [1] addresses T1, YFP-CIPK9 (Arabidopsis thaliana) (UniProt Q9MAM1).
T1 sequence: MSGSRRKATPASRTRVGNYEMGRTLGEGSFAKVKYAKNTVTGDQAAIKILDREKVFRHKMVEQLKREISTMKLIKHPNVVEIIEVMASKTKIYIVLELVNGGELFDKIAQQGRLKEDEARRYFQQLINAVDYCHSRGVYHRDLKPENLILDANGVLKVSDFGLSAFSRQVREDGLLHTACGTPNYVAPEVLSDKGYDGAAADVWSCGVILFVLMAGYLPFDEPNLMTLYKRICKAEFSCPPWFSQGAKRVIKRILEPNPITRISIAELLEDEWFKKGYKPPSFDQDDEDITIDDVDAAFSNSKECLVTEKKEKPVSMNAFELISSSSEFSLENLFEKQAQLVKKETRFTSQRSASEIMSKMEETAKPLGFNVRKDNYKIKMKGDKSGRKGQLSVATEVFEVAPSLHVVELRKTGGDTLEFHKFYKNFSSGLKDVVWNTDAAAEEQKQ
Nature of the assay: FRET or BRET; FRET by acceptor bleaching, CFP and YFP fusions co-expressed in N. benthamiana cells, confocal microscopy; at least seven cells. A general note: Bioluminescence resonance energy transfer reports proximity on the nanometre scale.

In assay [2] the target is AP2C1 deletion fragment KIM (kinase-interacting motif domain), two-hybrid fusion (Arabidopsis thaliana). Nature of the assay: two-hybrid; yeast strain AH109 co-transformed with AD (pGAD.GH) and BD (pGBT9.BS) fusions; growth on SC-LWH and on SC-LWH with 0.5 and 3.0 mM 3-AT.
In assay [3] the target is AP2C1 deletion fragment K2 (lacks the KIM domain), two-hybrid fusion (Arabidopsis thaliana). The description is as above.

“K2 fragment of AP2C1 (lacks the KIM domain) fused to cyan fluorescent protein (Arabidopsis thaliana) (domain or fragment)”: the binding result in assay [1] was “no binding”.

B1: CBL-interacting protein kinase 9 (CIPK9), two-hybrid fusion (enzyme, UniProt Q9MAM1 1-447)
chain: T1 sequence
With B1, the binding result in assay [2] is “binds”; in assay [3], “no binding”.
